Test results published in US11434267B2, “Peptides having reduced toxicity that stimulate cholesterol efflux” (The Regents of the University of California, priority 2013, dated 2022).
Not every detail of the peptide structures is certain; ends, links or a residue may be inferred. No end group written: not given here.

By UniProt entry, the sequences of proteins in these tests, tags left out. Where a name states a change or a piece, a line headed by the entry shows the natural chain unless it says otherwise.
UniProt P41233: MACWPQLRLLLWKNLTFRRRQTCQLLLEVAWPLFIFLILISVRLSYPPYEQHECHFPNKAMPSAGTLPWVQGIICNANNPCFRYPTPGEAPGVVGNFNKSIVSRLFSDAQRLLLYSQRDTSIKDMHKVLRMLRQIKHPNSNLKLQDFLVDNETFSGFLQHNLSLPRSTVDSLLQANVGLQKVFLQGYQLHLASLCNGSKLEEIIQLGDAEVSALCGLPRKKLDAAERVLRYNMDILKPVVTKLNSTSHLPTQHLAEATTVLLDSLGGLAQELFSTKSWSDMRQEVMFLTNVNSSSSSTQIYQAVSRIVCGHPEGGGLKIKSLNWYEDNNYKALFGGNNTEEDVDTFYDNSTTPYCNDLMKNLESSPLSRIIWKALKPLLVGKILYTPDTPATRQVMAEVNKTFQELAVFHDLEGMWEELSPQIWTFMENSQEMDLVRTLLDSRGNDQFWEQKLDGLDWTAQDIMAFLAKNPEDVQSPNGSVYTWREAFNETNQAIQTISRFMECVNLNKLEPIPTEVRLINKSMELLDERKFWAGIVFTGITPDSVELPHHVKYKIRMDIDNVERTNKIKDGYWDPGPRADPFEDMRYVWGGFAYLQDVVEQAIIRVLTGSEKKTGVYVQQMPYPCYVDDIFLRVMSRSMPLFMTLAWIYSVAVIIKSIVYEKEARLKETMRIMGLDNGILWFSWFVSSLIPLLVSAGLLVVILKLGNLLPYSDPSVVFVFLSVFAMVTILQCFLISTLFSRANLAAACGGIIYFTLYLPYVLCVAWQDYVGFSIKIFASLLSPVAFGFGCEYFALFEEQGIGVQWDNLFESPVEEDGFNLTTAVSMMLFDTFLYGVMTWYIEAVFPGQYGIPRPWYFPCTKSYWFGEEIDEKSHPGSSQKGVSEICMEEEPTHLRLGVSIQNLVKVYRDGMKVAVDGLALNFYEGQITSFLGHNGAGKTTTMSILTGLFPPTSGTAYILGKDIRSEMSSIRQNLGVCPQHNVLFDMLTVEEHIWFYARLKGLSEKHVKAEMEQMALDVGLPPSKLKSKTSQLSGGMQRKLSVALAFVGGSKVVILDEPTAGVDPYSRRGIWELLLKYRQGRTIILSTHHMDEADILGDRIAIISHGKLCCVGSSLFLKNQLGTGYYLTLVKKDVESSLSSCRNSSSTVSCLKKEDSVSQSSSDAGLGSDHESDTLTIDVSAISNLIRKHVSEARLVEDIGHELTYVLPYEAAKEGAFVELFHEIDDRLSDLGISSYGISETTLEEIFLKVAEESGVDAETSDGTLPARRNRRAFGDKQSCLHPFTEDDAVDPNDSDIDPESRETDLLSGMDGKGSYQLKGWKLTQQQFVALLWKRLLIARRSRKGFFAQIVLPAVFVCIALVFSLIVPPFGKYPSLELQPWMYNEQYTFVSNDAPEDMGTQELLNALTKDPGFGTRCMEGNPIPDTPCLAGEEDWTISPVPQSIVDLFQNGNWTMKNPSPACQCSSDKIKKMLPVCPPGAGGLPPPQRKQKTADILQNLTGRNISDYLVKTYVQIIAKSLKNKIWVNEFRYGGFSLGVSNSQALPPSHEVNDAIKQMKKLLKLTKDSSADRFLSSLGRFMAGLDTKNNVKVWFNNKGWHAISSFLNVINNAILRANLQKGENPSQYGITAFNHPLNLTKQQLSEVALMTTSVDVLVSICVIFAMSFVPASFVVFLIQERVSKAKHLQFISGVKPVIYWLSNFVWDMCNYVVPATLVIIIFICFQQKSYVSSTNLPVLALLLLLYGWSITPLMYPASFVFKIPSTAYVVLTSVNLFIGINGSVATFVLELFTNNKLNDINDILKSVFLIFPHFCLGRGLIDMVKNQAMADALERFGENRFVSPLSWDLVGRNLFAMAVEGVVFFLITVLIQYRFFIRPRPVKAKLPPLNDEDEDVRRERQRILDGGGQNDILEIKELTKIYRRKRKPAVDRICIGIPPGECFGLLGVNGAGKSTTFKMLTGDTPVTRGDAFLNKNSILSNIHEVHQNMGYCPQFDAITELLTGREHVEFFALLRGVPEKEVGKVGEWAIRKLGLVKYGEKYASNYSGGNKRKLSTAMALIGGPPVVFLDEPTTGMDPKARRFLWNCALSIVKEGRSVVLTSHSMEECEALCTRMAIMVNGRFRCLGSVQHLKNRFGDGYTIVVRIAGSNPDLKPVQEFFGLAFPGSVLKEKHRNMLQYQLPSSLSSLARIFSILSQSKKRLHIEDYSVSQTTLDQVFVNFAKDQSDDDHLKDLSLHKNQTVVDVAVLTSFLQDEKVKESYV

Columns and labels:
ABCA1 [1] = target: T1, ABCA1 (Mus musculus, UniProt P41233); assay: ABCA1-dependent cholesterol efflux from [3H]cholesterol-labeled J774 macrophages with and without cAMP; assay type: cell-based; conditions: cAMP treated J774, dose response, 4 h
T1 construct: treated (18 h) with a cAMP analog to induce ABCA1 protein expression; endogenous in cells; host or cells: J774 macrophages
Text: Suitable cholesterol efflux assays are described in, e.g., Bielicki, J. K and Oda, M. N., Biochemistry, 41:2089-2096 (2002); Jia et al., Biochem. Biophys. Res. Common., 297:206-213 (2002). In some embodiments, a polypeptide known to mediate cholesterol efflux (e.g., helix 9/10 of Apo A-I) is used to screen for additional mediators of cholesterol efflux in a cell based assay. For example, cell lines in which cholesterol efflux can be enhanced using a cAMP analog that up-regulates ABCA1 protein expression (e.g., J774 macrophages) can conveniently be used to assess the ability of a polypeptide of the present invention to mediate cholesterol efflux. The cells are incubated with labeled cholesterol (e.g., [^3H]cholesterol) under conditions appropriate for cholesterol uptake by the cells. Thus, cAMP or cAMP analogs (e.g., CPT-cAMP) are incubated with the cells for a suitable time before the initiation of cellular cholesterol efflux, i.e., prior to contacting the cells with a test polypeptide. Measurement of labeled cholesterol appearing in the medium is used to determine the cholesterol efflux mediating activity of the test polypeptide.
Aliphatic analogs of ATI-5261 lacking phenylalanine residues retained potent ABCA1 selective cholesterol efflux activity (FIG. 7). J774 macrophages were labeled (48 h) with [^3H]cholesterol and treated (18 h) with a cAMP analog to induce ABCA1 protein expression; cells incubated in the absence of cAMP (left bars) served as controls. […] Peptides were used at a concentration of 30 μg/ml, which was maximal for promoting cholesterol efflux activity. Panel B—Dependence of cholesterol efflux on the concentration of peptides. […] Results are expressed as the difference in cholesterol efflux (%/4 h) observed using cAMP treated vs. non-treated J774 cells. Values are means±SD, n=3.

ABCA1 [2] = target: T1, ABCA1; assay: as above; assay type: cell-based; conditions: J774, cAMP vs no cAMP; 30 μg/ml (FIG. 7) or concentration not stated

EVRSKLEEWLAALRELAEELLARLKS [Peptide T5055-13]
peptide concentration at saturation of cholesterol efflux (ABCA1 [1]): roughly 3 μg/ml | ABCA1-dependent cholesterol efflux activity (ABCA1 [2]): stimulated cholesterol efflux in an ABCA1-dependent manner
